Results are given in words; binding and its absence hold for the method and conditions named. In cells and extracts the contact can be indirect. Some entries that bind do so weakly or less than the wild type. Blank lines part the entries; values can stand above or below the molecule they belong to.
Key:
[1] = target: T1, NKX2-1 (human (endogenous in NCI-H660 and LuNE)) (UniProt P43699); assay: co-IP; Co-IP from the nuclear fraction of NCI-H660 cells, western blot (Fig. 7c); the precipitated protein is not named in the legend
T1 sequence: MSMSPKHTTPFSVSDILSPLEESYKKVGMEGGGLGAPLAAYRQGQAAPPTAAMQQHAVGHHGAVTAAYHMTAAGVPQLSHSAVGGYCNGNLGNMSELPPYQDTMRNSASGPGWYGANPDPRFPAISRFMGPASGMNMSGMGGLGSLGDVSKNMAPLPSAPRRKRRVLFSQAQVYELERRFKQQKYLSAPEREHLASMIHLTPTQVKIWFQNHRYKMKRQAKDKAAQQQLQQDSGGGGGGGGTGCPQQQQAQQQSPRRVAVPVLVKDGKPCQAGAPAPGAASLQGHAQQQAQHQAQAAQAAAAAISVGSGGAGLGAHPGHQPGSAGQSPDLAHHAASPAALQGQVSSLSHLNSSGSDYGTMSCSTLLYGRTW

By UniProt entry, the sequences of proteins in these tests, tags left out.
UniProt Q09472: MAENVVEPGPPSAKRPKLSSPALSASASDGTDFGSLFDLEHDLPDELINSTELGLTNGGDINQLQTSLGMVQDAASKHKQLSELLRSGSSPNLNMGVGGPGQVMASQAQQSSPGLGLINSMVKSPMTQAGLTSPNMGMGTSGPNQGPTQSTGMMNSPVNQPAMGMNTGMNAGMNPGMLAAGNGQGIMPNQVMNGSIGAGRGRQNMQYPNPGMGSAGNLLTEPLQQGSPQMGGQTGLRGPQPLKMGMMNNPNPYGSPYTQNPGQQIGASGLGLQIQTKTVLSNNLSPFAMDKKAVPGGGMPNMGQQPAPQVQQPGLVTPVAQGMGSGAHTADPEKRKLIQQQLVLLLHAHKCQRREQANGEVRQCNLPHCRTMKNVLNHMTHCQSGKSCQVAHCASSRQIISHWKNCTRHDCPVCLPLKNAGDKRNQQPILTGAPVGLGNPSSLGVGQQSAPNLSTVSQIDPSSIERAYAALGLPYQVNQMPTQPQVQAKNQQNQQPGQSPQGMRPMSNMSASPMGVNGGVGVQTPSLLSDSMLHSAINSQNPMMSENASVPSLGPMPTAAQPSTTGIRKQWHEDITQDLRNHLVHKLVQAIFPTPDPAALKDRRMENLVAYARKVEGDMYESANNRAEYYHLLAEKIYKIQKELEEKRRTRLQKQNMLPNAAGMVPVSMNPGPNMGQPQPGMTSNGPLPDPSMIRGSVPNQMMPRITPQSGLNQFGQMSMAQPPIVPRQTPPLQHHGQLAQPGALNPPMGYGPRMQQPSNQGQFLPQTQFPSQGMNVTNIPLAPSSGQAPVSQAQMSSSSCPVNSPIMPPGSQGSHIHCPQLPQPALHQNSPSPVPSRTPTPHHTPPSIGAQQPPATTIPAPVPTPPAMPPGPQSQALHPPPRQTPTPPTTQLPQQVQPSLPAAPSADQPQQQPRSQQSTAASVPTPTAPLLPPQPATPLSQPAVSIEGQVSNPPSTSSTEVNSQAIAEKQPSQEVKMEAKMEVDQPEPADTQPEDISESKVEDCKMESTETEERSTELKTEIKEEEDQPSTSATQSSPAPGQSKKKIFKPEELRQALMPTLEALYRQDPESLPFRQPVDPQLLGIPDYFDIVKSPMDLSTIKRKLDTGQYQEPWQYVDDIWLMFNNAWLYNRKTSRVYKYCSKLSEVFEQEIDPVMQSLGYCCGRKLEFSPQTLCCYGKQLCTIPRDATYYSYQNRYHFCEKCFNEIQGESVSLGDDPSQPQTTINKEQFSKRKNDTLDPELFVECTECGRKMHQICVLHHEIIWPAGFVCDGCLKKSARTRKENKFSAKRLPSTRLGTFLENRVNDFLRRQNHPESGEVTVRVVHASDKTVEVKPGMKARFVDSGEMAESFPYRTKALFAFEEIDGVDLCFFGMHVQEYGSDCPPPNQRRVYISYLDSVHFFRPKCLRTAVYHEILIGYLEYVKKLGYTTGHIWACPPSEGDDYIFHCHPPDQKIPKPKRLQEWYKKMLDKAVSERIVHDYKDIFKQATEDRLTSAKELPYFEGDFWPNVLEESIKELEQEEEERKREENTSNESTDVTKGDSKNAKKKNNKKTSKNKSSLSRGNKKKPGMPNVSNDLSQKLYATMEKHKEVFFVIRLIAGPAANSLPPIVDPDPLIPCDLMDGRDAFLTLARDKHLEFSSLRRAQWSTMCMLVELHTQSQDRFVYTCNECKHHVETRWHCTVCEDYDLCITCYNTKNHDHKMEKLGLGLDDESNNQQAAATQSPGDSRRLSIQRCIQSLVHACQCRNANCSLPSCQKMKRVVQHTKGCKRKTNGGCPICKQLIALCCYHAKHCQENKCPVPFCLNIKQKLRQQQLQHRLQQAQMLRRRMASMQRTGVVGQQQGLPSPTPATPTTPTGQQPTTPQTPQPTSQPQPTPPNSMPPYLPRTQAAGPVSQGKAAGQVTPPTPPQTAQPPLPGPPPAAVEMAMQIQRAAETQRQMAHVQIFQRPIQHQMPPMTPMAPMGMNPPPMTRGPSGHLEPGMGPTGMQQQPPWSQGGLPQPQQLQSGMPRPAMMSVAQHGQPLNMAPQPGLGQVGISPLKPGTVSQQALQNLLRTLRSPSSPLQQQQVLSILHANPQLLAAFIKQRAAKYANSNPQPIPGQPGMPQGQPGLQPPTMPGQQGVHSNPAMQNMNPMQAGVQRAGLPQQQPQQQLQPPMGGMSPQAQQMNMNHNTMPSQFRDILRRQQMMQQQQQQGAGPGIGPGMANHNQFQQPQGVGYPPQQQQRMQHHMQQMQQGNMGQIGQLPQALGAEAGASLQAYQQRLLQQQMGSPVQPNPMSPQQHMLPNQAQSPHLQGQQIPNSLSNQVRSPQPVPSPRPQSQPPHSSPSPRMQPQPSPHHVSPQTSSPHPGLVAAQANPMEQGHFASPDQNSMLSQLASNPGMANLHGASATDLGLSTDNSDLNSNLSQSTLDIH
UniProt Q92793: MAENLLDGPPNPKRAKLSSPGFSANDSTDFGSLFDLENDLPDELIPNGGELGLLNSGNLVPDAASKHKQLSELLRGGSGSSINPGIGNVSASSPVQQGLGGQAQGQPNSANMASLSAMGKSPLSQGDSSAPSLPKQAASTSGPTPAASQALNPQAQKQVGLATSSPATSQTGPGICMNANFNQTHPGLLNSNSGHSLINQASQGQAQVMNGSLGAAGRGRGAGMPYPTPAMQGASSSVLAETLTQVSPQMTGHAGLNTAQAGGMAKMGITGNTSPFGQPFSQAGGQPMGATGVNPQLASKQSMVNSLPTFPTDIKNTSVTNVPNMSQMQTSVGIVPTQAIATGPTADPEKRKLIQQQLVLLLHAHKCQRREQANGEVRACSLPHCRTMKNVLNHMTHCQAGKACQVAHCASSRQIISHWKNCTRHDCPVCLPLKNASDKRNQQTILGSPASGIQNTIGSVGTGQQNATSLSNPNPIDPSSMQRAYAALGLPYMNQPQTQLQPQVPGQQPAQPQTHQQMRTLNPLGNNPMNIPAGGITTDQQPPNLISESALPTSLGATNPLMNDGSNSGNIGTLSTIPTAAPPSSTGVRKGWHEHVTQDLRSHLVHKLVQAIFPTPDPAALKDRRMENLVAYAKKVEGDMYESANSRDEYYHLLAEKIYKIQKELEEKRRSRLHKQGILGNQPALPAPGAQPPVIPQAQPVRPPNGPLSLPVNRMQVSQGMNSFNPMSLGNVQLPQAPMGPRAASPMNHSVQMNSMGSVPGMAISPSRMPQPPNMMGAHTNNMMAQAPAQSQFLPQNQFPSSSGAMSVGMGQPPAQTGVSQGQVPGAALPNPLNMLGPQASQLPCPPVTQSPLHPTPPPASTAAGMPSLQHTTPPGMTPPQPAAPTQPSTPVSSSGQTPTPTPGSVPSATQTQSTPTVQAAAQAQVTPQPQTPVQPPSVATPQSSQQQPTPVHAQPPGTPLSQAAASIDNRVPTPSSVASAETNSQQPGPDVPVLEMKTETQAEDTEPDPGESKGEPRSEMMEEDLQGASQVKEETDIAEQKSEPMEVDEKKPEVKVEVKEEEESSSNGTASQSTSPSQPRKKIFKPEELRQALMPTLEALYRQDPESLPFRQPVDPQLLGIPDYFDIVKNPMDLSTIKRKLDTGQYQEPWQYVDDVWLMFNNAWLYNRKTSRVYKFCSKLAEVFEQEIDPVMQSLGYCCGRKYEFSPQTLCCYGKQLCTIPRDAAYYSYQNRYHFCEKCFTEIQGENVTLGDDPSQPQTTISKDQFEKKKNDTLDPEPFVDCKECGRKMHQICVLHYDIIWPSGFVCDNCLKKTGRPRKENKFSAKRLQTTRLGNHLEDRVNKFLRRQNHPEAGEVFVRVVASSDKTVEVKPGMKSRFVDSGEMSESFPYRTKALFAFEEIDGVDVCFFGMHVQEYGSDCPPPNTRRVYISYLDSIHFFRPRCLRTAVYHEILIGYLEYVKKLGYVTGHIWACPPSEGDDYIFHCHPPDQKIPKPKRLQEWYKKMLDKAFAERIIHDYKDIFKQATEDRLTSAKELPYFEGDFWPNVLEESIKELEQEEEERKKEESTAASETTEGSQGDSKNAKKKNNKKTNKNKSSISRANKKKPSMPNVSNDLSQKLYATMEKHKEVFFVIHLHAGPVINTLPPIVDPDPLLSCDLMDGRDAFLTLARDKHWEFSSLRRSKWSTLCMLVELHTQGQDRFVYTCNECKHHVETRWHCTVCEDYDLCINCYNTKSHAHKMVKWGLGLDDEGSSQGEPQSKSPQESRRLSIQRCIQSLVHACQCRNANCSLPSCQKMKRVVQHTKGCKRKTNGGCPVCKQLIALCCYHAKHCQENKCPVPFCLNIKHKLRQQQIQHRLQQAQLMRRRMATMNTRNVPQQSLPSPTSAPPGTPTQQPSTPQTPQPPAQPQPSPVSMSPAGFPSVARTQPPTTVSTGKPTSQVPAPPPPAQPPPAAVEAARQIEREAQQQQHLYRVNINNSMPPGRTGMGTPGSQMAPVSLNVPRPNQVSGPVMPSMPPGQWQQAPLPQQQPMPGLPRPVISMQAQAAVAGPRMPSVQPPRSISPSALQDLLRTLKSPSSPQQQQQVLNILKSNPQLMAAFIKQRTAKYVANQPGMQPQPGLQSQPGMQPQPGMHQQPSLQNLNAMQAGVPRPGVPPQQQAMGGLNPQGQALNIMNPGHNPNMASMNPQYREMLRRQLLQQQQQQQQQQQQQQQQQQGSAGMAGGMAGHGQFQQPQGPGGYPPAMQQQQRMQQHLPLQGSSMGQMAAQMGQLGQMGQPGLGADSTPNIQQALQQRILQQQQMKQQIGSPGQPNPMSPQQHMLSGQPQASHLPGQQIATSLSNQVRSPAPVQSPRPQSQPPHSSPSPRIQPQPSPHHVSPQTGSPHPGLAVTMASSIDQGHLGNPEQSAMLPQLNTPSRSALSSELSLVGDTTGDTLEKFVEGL

[2] = target: T1, NKX2-1 (human (endogenous in NCI-H660 and LuNE)); assay: co-IP; Co-IP from the nuclear fraction of LuNE cells (stable LNCaP+FOXA2), western blot (Fig. 7b); the precipitated proteins are not named in the legend
[3] = target: T2, FOXA2 (stably overexpressed in LuNE cells) (human) (UniProt Q9Y261); assay: as above
T2 sequence: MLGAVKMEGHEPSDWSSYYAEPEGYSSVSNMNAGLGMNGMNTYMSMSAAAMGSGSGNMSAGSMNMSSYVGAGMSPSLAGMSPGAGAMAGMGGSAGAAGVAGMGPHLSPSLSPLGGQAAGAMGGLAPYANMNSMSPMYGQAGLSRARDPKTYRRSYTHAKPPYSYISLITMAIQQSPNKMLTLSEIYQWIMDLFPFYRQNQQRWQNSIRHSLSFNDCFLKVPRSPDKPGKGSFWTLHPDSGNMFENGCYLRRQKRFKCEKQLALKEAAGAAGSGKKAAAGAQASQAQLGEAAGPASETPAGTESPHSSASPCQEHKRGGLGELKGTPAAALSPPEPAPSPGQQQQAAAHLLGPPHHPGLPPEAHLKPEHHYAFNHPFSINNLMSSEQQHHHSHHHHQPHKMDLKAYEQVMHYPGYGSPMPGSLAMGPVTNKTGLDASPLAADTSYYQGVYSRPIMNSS

[4] = target: T3, FOXA2 (human (endogenous in NCI-H660)), Q9Y261; assay: co-IP; FOXA2 Co-IP from the nuclear fraction of NCI-H660 cells, western blot (Fig. 4c); settings: remark: other sources report otherwise
T3 chain: T2 sequence

[5] = target: T4, NKX2-1 (human (endogenous in NCI-H660 and LuNE)), P43699; assay: co-IP; Co-IP from the nuclear fraction of NCI-H660 cells, western blot (Fig. 7c); the precipitated protein is not named in the legend; settings: remark: other sources report otherwise
T4 chain: T1 sequence

Molecule: EP300 (p300) (from UniProt Q09472 1-2414) (enzyme)
binding [1]: binds | binding [2]: binds

Molecule: CREBBP (CBP) (from UniProt Q92793 1-2442) (enzyme)
binding [2]: binds | binding [3]: binds

Results, then the molecule that gave them:

binding [4]: binds
B1: NKX2-1, P43699 1-371 (protein)
chain: T1 sequence

binding [5]: binds
B2: FOXA2, Q9Y261 1-457 (protein)
chain: T2 sequence
